The list is a part of this screen's results and no random one: it gathers tests that were run many times, whatever their T/C, doses with no T/C, and many T/C values between a quarter and a half above the control. Other doses and runs of a compound stand elsewhere. T/C gives the treated animals as a percentage of the vehicle group. Some doses have a count of surviving animals in place of a T/C: the source files T/C as zero there, which appears to mark a toxic dose or a test without result, not a measured value. Some survivor counts are full or nearly so, which does not show that the dose was tolerated: the source hardly ever lists a survival T/C far under the control, and the zero likely stands for such cases as well. Counts of survivors are from the toxicity check (mostly the fifth day) where no day follows; animals may have died later. Schedules are NCI's codes, read here as Q, the interval in days (D) or hours (H), X, the number of doses. Some doses were run more than once; their values stand side by side, smallest first. Where survival is the endpoint, this PubChem deposit counts one and a half times the control or more as active, and values a quarter to a half above the control carry no call in these data; other NCI protocols may use other cut-offs. Some T/C values carry the count of animals alive at the toxicity check (mostly the fifth day); without a count, all were alive then. Where a SMILES comes first, the peptide text is derived from it. The star is where a group is joined. Boc = CC(C)(C)OC(=O)*
Tested on: B6C3F1 mice, B16 melanoma ip, median survival T/C
Assay: NCI In Vivo Anticancer Drug Screen. Data for tumor model B16 Melanoma (intraperitoneal) in B6C3F1 mice
Conditions: T/C endpoint: median survival time, schedule: Q01DX009 (ip), higher T/C = longer survival
In short: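 Values are T/C ratios: the measurement in treated animals divided by that in vehicle-treated controls, using survival or tumor size in mice carrying transplantable tumors.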

[1] = dose: 400.0 mg/kg/injection, vehicle: Klucel (hydroxypropylcellulose) (HPC)
[2] = dose: 800.0 mg/kg/injection, vehicle: Klucel (hydroxypropylcellulose) (HPC)
[3] = dose: 400.0 mg/kg/injection, vehicle: saline with Tween-80
[4] = dose: 200.0 mg/kg/injection, vehicle: saline
[5] = dose: 400.0 mg/kg/injection, vehicle: saline
[6] = dose: 200.0 mg/kg/injection, vehicle: saline with Tween-80
[7] = dose: 25.0 mg/kg/injection, vehicle: saline with Tween-80

CC[C@@]1(O)C(=O)OCc2c1cc1n(c2=O)Cc2cc3cc(O)ccc3nc2-1
T/C (dose: 0.1 mg/kg/injection, vehicle: other): 129 % of control
T/C (dose: 0.19 mg/kg/injection, vehicle: other): 145 % of control
survivor count (dose: 3.0 mg/kg/injection, vehicle: other): 10 of 10
survivor count (dose: 6.0 mg/kg/injection, vehicle: suspension in saline): 10 of 10

Cc1ccc(S(=O)(=O)OCOS(=O)(=O)c2ccc(C)cc2)cc1
T/C (dose: 100.0 mg/kg/injection, vehicle: Klucel (hydroxypropylcellulose) (HPC)): 146 % of control
T/C (dose: 200.0 mg/kg/injection, vehicle: Klucel (hydroxypropylcellulose) (HPC)): 138 % of control
T/C [1]: 138 % of control [9 of 10 alive]
survivor count [2]: 7 of 10 and 10 of 10

COc1cc2cc(c1Cl)N(C)C(=O)CC(OC(=O)C(C)NC(=O)C(C)C)C1(C)OC1C(C)C1CC(O)(NC(=O)O1)C(OC)/C=C/C=C(C)C2OC (stereo not given)
T/C (dose: 16.0 micrograms/kg/injection, vehicle: distilled water + alcohol): 128 % of control
T/C (dose: 32.0 micrograms/kg/injection, vehicle: distilled water + alcohol): 128 % of control

C[Si](C)(C)n1nnn(-c2ccccc2)c1=O
survivor count [3]: 0 of 10

Nc1nc2c(ncn2C2OC(CO)C(O)C2O)c(=O)[nH]1 (stereo not given)
T/C (dose: 150.0 mg/kg/injection, vehicle: saline with Tween-80): 132 % of control
T/C (dose: 300.0 mg/kg/injection, vehicle: saline with Tween-80): 132 % of control [9 of 10 alive]
T/C (dose: 600.0 mg/kg/injection, vehicle: saline with Tween-80): 130 % of control [9 of 10 alive]

CCOC(=O)[C@]1(Br)CC[C@@]1(Br)C(=O)OCC
survivor count [3]: 5 of 10 and 10 of 10

CSCCC(NC(=O)C(CC(C)C)NC(=O)OC(C)(C)C)C(N)=O (stereo not drawn) (Boc-Leu-Met-NH2; configuration not given here)
survivor count [1]: 9 of 10

CC1C(c2ccccc2)OC(N2CCOCC2)C(C)(C)CN1C (stereo not given)
survivor count (dose: 800.0 mg/kg/injection, vehicle: saline with Tween-80): 1 of 10

CCCCCCCCCCCCCCCC(=O)OCC1OC(n2ccc(N)nc2=O)C(O)C1O (stereo not given)
survivor count (dose: 30.0 mg/kg/injection, vehicle: saline with Tween-80): 10 of 10
survivor count (dose: 60.0 mg/kg/injection, vehicle: saline with Tween-80): 10 of 10
survivor count (dose: 120.0 mg/kg/injection, vehicle: saline with Tween-80): 9 of 10 and 10 of 10

O=CC(S)CO (stereo not given)
T/C (dose: 100.0 mg/kg/injection, vehicle: saline): 127 % of control
survivor count [4]: 9 of 10
survivor count [5]: 3 of 10

O=C(CO)c1ccc([N+](=O)[O-])cc1
T/C (dose: 12.5 mg/kg/injection, vehicle: saline with Tween-80): 132 % of control

O=S(=O)(N=N/C=C1\C=CC=CN1O)c1cccs1
T/C (dose: 100.0 mg/kg/injection, vehicle: saline with Tween-80): 127 % of control
survivor count [6]: 8 of 10
survivor count [3]: 1 of 10

CN=C(N)N/N=C(\c1ccccc1)c1ccc(Br)cc1
survivor count [7]: 10 of 10
survivor count (dose: 50.0 mg/kg/injection, vehicle: saline with Tween-80): 7 of 10

Cc1ccc(C2NC(=S)N3C(c4ccc(C)cc4)NC(=S)N23)cc1 (stereo not given)
T/C [2]: 129 % of control

Clc1cc(Cl)c(C[N+]23CN4CN(CN(C4)C2)C3)cc1Cl
survivor count [6]: 5 of 10
T/C [4]: 125 % of control
survivor count [3]: 0 of 10
survivor count [5]: 0 of 10

O=C(CCCN1CCC(C(O)c2ccc(F)cc2)CC1)c1ccc(F)cc1 (stereo not given)
survivor count [7]: 6 of 10
